Source: patent US8598212B2, “Therapeutic agent and preventative agent for alzheimer's disease” (Toray Industries, Inc., priority 2010, dated 2013)
Where a name gives a salt, the structure may show the parent alone.

System: Alzheimer's disease model rats
Test: Morris water maze test in Alzheimer's disease model rats (basal ganglia destroyed with ibotenic acid)
Assay type: in vivo, Wistar rats
Details: 0.5 mg/kg oral 60 minutes before first trial on Day 10 to Day 12 after destruction treatment
Experimental: In the experiments, 10 male Wistar rats of 7 weeks old were used for one experimental group. Rats were anesthetized and fixed in a brain stereotaxic apparatus. The skull of each rat was exposed, and small windows were made at two sites: 1.4 mm posterior to the bregma and 2.8 mm left and right of the midline. A catheter was inserted from the exposed dura mater into the basal ganglia located at 7.6 mm in a ventral direction, and ibotenic acid solution prepared by dissolving 5 μg ibotenic acid in 0.5 μL phosphate buffer (50 mM) was injected over 5 minutes to destroy the basal ganglia, thereby preparing Alzheimer's disease model rats. Rats of sham operation group received injection of 0.5 μL phosphate buffer (50 mM) instead of ibotenic acid solution. […]
Learning and memory function of the subject rats were evaluated by the Morris water maze test. […] The swimming time until a subject rat placed at the arbitrary start position in the round pool reached the platform (hereinafter “Escape latency”) was measured by recording the movement locus of the subject rat with a video image behavioral analysis system. […]

COc1cc2c(cc1OC)C(=O)C(CC1CCN(Cc3ccccc3)CC1)C2 (stereo not shown) [donepezil hydrochloric acid salt, reference compound]
Escape latency in Morris water maze: shortened to the same level as of the sham operation group rats
